According to PMC6921592:
Results are given in words; binding and its absence hold for the method and conditions named. In cells and extracts the contact can be indirect. Here binding means that the protein was enriched with, or labelled near, the bait; the list need not be complete.

Chains of the proteins cited; added tags and fusions are not shown.
UniProt P70351: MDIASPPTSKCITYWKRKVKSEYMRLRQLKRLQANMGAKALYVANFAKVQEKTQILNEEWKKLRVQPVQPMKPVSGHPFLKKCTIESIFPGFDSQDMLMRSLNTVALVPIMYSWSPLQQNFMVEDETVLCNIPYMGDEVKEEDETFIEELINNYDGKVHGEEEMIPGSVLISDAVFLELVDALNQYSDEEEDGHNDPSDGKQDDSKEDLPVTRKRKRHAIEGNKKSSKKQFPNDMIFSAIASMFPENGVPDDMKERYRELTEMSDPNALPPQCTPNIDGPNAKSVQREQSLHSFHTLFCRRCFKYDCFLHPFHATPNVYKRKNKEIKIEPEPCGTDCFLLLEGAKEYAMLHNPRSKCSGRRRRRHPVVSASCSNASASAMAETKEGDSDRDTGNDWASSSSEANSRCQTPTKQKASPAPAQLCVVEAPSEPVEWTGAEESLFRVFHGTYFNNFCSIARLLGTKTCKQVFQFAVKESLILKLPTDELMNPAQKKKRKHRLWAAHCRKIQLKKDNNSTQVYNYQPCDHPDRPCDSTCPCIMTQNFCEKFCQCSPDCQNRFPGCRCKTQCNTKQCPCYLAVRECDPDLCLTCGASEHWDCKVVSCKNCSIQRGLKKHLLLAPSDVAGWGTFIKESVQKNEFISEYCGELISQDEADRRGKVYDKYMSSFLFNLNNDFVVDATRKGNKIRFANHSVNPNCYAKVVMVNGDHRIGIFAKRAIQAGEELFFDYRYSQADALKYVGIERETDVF
UniProt Q9Z1B8: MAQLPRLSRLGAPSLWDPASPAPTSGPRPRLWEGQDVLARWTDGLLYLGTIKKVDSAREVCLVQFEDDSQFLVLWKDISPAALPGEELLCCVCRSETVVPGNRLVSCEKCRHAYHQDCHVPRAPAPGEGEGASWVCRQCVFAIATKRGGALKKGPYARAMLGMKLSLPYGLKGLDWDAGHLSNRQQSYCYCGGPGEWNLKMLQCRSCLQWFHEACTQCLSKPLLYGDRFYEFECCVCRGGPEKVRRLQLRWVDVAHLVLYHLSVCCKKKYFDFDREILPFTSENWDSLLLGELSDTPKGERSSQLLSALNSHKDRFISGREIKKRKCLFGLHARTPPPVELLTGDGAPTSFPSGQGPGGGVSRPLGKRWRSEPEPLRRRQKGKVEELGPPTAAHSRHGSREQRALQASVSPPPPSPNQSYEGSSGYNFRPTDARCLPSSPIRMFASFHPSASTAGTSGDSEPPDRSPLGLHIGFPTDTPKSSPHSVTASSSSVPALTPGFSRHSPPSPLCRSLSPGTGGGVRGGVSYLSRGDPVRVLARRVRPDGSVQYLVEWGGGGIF

Biological target: Ezh1α-FLAG-HA (UniProt P70351)
Assay: affinity purification with mass spectrometry; tandem affinity purification (Flag, then HA) of Ezh1α-FH from nuclear extracts of C2C12 myotubes under normal condition; wild-type C2C12 as mock; LC-MS

Substance: PHF1 (from UniProt Q9Z1B8 1-559)
- binding: binds
